Experimental data published in publication PMC10166801.
These are yes or no findings as the source states them, for the method shown. For some assays here: In cells and extracts the contact can be indirect. Some entries that bind do so weakly or less than the wild type.

The chains behind the UniProt entries cited, without tags or fusion partners. Residues count along the entry.
UniProt P28906, residues 32-385: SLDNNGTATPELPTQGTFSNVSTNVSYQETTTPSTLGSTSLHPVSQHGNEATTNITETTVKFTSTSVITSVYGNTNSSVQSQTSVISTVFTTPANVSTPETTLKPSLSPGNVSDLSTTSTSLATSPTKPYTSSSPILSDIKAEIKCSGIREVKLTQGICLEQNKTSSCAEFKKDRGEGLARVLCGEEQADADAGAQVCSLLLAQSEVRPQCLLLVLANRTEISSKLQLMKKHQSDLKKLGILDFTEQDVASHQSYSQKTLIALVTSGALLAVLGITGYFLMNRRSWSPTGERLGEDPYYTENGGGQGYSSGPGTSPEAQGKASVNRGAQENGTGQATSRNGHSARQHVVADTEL

B1: recombinant soluble E-selectin construct (rE-selectin-IgG) (Fc fusion, UniProt P16581 22-556)
chain: WSYNTSTEAMTYDEASAYCQQRYTHLVAIQNKEEIEYLNSILSYSPSYYWIGIRKVNNVWVWVGTQKPLTEEAKNWAPGEPNNRQKDEDCVEIYIKREKDVGMWNDERCSKKKLALCYTAACTNTSCSGHGECVETINNYTCKCDPGFSGLKCEQIVNCTALESPEHGSLVCSHPLGNFSYNSSCSISCDRGYLPSSMETMQCMSSGEWSAPIPACNVVECDAVTNPANGFVECFQNPGSFPWNTTCTFDCEEGFELMGAQSLQCTSSGNWDNEKPTCKAVTCRAVRQPQNGSVRCSHSPAGEFTFKSSCNFTCEEGFMLQGPAQVECTTQGQWTQQIPVCEAFQCTALSNPERGYMNCLPSASGSFRYGSSCEFSCEQGFVLKGSKRLQCGPTGEWDNEKPTCEAVRCDAVHQPPKGLVRCAHSPIGEFTYKSSCAFSCEEGFELHGSTQLECTSQGQWTEEVPSCQVVKCSSLAVPGKINMSCSGEPVFGTVCKFACPEGWTLNGSAARTCGATGHWSGLLPTCEAPTESNIP

Experiments:
[1] = target: T1, recombinant soluble E-selectin construct (rE-selectin-IgG) (UniProt P16581); experiment: pull-down; rE-selectin-IgG on Protein G Dynabeads, lysate of 100 million KG1a-derived exosomes, overnight at 4°C, 2 mM calcium also in the washes; western blot for each ligand; only the target purified
T1 sequence: B1 chain

[2] = target: CD34 of KG1a-derived exosomes (human (endogenous in KG-1a)) (UniProt P28906); experiment: far-Western, overlay or dot blot; each ligand immunoprecipitated with its antibody from lysates of KG1a-derived exosomes, resolved on a gel and blotted with rE-selectin-IgG; only the binder purified

Molecule | binding [1] | binding [2]
CD34 of KG1a-derived exosomes (from UniProt P28906 32-385) | binds | 
B1 |  | binds
